Assay results: PubChem BioAssay AID493014 (National Center for Advancing Translational Sciences (NCATS), 2011)
Where “and” joins values, the source holds several entries; their conditions need not be identical. Identical values can stand only once. Out of some 340,000 compounds screened, about 170 (0.05%) were called active. This list was built around the results that the source calls inconclusive (neither active nor inactive); the mix of calls is not that of the screen. Calls come from the whole dose curve; as a rule, active = well fitted inhibition curve with a large enough effect in the signal ratio, with a control signal flat (not every such curve was filed as active); inconclusive = small, poorly fitted or top-dose-only effect, or effect the other way, or a change in a side signal; inactive = flat fitted curve, though single readings scatter; the % refers to the signal ratio. Potencies of inconclusive entries are doubtful fits and often do not repeat.

Assay: qHTS Assay to Find Inhibitors of Chronic Active B-Cell Receptor Signaling;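 for activity change, negative = inhibition: plate controls were basal doxycycline-induced cells for no effect and cells given 10 µM MG132 for full effect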
Conditions: ABC-DLBCL IkBa-CBG/CBR reporter, luminescence ratio (green luciferase fused to IkBa over red control in TMD8 lymphoma cells), 4 h; activity change, negative = inhibition: at 46.1 µM (top of the series)
In short: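 Cell line TMD8 (human ABC DLBCL), stably expressing tet-inducible CBG68-IkBa fusion and CBR; IMDM/0.5% FBS; cpd up to 46 uM; dox induction, 4 h, 37C/5% CO2; dual luminescence; green/red ratio; MG132 control.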
Potency is the fitted concentration of half-maximal effect.

Row | SMILES | activity change, negative = inhibition | Potency
1 | Cc1cccc(C)c1NS(=O)(=O)c1ccc(NC(=O)c2ccc(Cl)c([N+](=O)[O-])c2)cc1 | inconclusive: 22.7% | –
2 | COc1ccc(CNCCNC(=O)c2nonc2N)cc1OC | inactive | –
3 | CCC(=O)N1CCc2cc(Br)cc(S(=O)(=O)N3CCC(C(=O)Nc4ccc(OC)cc4)CC3)c21 | inconclusive: 16% | –
4 | CCN1CCN(C(=S)c2ccc(Cl)c(Cl)c2)CC1 | inconclusive: 5.82% | –
5 | COc1ccc(NC(=O)CSc2nc(-c3cccs3)cc(C(F)(F)F)n2)cc1OC | inconclusive: -1.84% | –
6 | CCOC(=O)c1ccc(N/C=C/C(=O)c2ccc(OC)c(OC)c2)cc1 | – | inconclusive: 1.58 µM [falling, partial curve, poor fit]
7 | COC(=O)c1ccc2c(c1)C(=O)/C(=C/c1ccc(C)cc1)O2 | inactive | –
8 | CC(=O)NCCc1nc2ccccc2n1Cc1cccc(C)c1 | inactive | –
9 | O=C(CSc1nc2ccccc2n1CCc1ccccc1)N1CCOCC1 | – | inconclusive: 16.4 µM [falling, partial curve, poor fit]
10 | O=C(NNC(=O)C(c1ccccc1)c1ccccc1)c1ccccn1 | inconclusive: -13.6% | –
11 | CC1(C(=O)Nc2nnc(SCc3ccccc3)s2)Cc2ccccc2C(=O)O1 (centres undefined) | – | inconclusive: 16.4 µM [rising, partial curve, poor fit]
12 | CCOCc1nnc(NC(=O)COc2ccc3c(c2)OCO3)s1 | inconclusive: -15.2% | –
13 | Cc1ccc(NC(=O)CCC(=O)N/N=C/c2coc3ccccc3c2=O)cc1 | – | inconclusive: 28.2 µM [falling, single point]
14 | Cc1sc(Nc2ccc([N+](=O)[O-])cc2)nc1-c1c(C)n(C)n(-c2ccccc2)c1=O | inconclusive: 0.181% | –
15 | COCCNC(=S)Nc1ccc2nc(N3CCN(C)CC3)cc(C)c2c1 | inactive | –
16 | c1ccc(-c2n[nH]c3ccccc23)cc1 | inconclusive: -3.3% | –
17 | CC(C)(C)C(=O)O/N=C(\N)c1ccc(-c2csnn2)cc1 | inconclusive: 9.7% | –
18 | Cc1ccc(C)c(-c2[nH]ncc2CN2CCCC(CO)(Cc3ccccc3C)C2)c1 (centres undefined) | inconclusive: -19.3% | –
19 | CN(Cc1ccc2c(c1)OCCO2)C(=O)CSc1ncnc2sccc12 | – | inconclusive: 20.6 µM [falling, partial curve, poor fit]
20 | Nc1c(C(=O)Nc2ccc3c(c2)OCCO3)nnn1Cc1ccccc1Cl | inconclusive: -4.23% | –
21 | Cc1ccnc(NC(=O)c2cccc(S(=O)(=O)N3CCN(c4ccccc4)CC3)c2)c1 | inactive | –
22 | COc1ccc(-c2cc(C(=O)Nc3nc4ccccc4s3)c3ccccc3n2)cc1OC | inactive | –
23 | CC(=O)c1cc2c(cc1N/C(=N/S(=O)(=O)c1ccc(C)cc1)c1ccccc1)OCO2 | – | inconclusive: 14.1 µM [falling, single point]
24 | Cc1nc2ccccc2cc1C(=O)N/N=C/c1cccc([N+](=O)[O-])c1 | inconclusive: -1.16% | –
25 | O=C(CN(Cc1ccco1)C(=O)c1ccc(F)cc1)Nc1ccccc1Br | inactive | –

Row | SMILES | activity change, negative = inhibition | Potency
26 | CCOC(=O)C1CCCN(S(=O)(=O)c2ccc(F)c(C(=O)Nc3ccc(F)c(F)c3)c2)C1 (centres undefined) | inconclusive: -0.499% | –
27 | COc1cccc(CNC(=O)C2CCCN(c3nn4c(=O)cc(C)nc4s3)C2)c1 (centres undefined) | inconclusive: 6.86% | –
28 | CSCC[C@H](NC(=O)[C@@H]1Cc2ccccc2CN1)C(=O)Nc1cccc(C)c1 | inconclusive: -18.7% | –
29 | CCCn1c(=S)[nH]c2cc(C(=O)NCC3CCCO3)ccc2c1=O (centres undefined) | inconclusive: 24.1% | –
30 | Cc1cccc(C(=O)O/N=C2\CCS(=O)(=O)c3sccc32)c1 | inconclusive: -1.35% | –
31 | CCc1ccc(CN(C)CCc2ccccn2)cc1 | inconclusive: 22.5% | –
32 | CC1Sc2ccc(S(=O)(=O)CCC(=O)Nc3ccc(C(C)C)cc3)cc2NC1=O (centres undefined) | inactive | –
33 | COCCn1c(Cc2ccccc2)nnc1SC(C)C(=O)NC1CC1 (centres undefined) | inconclusive: 0.876% | –
34 | Cc1cc(N2CCN(c3ccccc3)CC2)n2cc(-c3ccccc3)nc2n1 | inconclusive: -0.682% | –
35 | CCSc1nnc(NC(=O)c2nc3nc(C)cc(C)n3n2)s1 | – | inconclusive: 15.8 µM [falling, partial curve, poor fit]
36 | Cc1cccc(SCc2noc(C(=O)NC(C)C)c2C(=O)O)c1 | – | inconclusive: 35.5 µM [falling, single point]
37 | O=C(NCCOc1cccc(Oc2ccccc2)c1)c1cc(-n2cnnc2)ccc1Cl | – | inconclusive: 29.1 µM [falling, partial curve, poor fit]
38 | O=C(c1cccc([N+](=O)[O-])c1)N1CCN(Cc2ccc3c(c2)OCO3)CC1 | inactive | –
39 | CCCC(=O)N1CCN(c2ccc(NC(=O)c3cccs3)cc2)CC1 | inactive | –
40 | CS(=O)(=O)c1ccc(Sc2nc3ccccc3[nH]2)c([N+](=O)[O-])c1 | – | inconclusive: 25.1 µM [falling, partial curve]
41 | NC(=O)c1cccc(-c2noc(-c3ccccc3F)n2)c1 | – | inconclusive: 3.66 µM [falling, single point] and inconclusive: 2.59 µM [falling, single point]
42 | O=C(c1ccccc1)c1cc(-c2ccccn2)c(N2CCOCC2)s1 | inconclusive: -23.4% | –
43 | CCOc1cc(S(=O)(=O)n2cnc(C)c2)ccc1Cl | – | inconclusive: 35.5 µM [falling, single point]
44 | CCC(=O)Nc1nc2c(OC)ccc(OC)c2s1 | – | inconclusive: 1.64 µM [rising, partial curve]
45 | CCCC(C)NNC(=O)c1cc2ccccc2[nH]1 (centres undefined) | – | inconclusive: 35.5 µM [falling, single point]
46 | COCc1cc(=O)n2c([nH]c3ccccc32)c1C#N | – | inconclusive: 18.4 µM [rising, partial curve]
47 | O=[N+]([O-])c1ccc(Cl)c2c1C1C=CCC1C(c1ccccn1)N2 (centres undefined) | inactive | –
48 | Cc1ccc2[nH]c3c(c2c1)CN(C(=O)CN1CCN(Cc2ccc4c(c2)OCO4)CC1)CC3 | – | inconclusive: 20 µM [falling, partial curve, poor fit]
49 | Nc1cc2c([N+](=O)[O-])cccc2o1 | inconclusive: -18.6% | –
